According to publication PMC12719381:
Results are given in words; binding and its absence hold for the method and conditions named. Binding seen in cells or lysates may run through a third protein. A yes stands for co-enrichment or nearness to the bait. Other partners may have been found.

Sequences of proteins named here, by UniProt entry; tags and fusion partners are left off.
UniProt Q99873: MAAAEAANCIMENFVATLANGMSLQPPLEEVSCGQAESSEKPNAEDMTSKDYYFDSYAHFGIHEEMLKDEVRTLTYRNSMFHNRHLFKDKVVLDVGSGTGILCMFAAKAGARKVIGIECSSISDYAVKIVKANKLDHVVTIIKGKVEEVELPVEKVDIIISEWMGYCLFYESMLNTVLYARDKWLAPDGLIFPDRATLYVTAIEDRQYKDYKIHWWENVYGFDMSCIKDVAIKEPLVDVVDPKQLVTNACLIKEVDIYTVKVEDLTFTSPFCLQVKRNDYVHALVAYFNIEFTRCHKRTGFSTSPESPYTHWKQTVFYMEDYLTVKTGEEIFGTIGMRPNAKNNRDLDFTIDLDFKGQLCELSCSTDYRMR

Target: T1, Fos-like antigen 1 (FOSL1) (human (endogenous in U251R and LN229R)) (UniProt P15407)
T1 sequence: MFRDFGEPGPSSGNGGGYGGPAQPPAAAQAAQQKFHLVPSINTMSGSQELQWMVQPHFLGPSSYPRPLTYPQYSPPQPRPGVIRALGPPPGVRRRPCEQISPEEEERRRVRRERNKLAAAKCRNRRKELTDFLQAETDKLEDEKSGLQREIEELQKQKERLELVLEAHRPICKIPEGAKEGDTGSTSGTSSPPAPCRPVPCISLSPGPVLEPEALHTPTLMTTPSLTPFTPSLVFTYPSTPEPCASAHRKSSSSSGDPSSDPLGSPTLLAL
Test: affinity purification with mass spectrometry; anti-FOSL1 immunoprecipitation from U251R cells against input; SDS-PAGE, in-gel trypsin digestion, LC-MS/MS (timsTOF Pro)

In the case of “Protein Arginine Methyltransferase 1 (PRMT1) (from UniProt Q99873 1-371) (enzyme)”, the binding is reported as “binds”.
